Data: publication PMC6834667

By UniProt entry, the sequences of proteins in these tests, tags left out. Where a name states a change or a piece, a line headed by the entry shows the natural chain unless it says otherwise.
UniProt P48681: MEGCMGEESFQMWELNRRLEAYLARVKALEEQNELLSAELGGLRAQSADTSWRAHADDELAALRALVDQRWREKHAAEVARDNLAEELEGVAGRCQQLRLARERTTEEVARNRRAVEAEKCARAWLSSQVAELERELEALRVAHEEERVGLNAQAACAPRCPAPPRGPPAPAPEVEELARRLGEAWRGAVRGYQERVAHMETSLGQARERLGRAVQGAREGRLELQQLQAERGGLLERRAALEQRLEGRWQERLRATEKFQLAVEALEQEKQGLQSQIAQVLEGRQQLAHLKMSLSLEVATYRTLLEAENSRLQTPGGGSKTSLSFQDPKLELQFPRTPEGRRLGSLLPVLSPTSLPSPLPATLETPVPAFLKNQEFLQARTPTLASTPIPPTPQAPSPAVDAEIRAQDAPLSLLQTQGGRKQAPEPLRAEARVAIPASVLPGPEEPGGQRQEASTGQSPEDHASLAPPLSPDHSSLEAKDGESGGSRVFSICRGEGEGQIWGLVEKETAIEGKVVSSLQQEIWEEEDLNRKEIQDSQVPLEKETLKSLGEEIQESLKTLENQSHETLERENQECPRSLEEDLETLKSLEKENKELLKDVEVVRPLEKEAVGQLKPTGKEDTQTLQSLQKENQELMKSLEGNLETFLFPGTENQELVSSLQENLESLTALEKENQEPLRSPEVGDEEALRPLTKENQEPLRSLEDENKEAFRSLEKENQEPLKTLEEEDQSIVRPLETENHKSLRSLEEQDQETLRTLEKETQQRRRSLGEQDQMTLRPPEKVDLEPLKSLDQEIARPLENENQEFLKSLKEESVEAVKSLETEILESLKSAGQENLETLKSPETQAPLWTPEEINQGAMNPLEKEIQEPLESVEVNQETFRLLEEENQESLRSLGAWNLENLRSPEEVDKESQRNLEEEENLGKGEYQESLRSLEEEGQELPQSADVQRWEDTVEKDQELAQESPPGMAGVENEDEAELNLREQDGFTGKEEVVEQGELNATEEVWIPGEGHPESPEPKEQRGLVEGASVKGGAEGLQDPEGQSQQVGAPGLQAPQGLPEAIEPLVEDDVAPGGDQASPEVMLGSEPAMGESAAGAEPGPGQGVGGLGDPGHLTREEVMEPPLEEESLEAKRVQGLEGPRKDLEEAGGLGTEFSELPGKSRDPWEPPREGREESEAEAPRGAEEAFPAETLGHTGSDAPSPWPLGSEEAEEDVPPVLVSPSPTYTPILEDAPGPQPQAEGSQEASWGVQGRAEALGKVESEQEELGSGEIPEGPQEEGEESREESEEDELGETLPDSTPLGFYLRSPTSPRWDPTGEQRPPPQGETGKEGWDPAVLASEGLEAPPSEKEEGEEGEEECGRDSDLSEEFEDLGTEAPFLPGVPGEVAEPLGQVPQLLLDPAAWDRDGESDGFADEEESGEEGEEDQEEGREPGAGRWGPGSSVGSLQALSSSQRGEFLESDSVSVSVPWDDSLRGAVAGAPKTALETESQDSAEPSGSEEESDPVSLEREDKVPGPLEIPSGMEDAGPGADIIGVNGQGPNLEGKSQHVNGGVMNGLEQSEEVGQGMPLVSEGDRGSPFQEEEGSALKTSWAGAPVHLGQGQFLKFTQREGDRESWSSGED
UniProt Q14145: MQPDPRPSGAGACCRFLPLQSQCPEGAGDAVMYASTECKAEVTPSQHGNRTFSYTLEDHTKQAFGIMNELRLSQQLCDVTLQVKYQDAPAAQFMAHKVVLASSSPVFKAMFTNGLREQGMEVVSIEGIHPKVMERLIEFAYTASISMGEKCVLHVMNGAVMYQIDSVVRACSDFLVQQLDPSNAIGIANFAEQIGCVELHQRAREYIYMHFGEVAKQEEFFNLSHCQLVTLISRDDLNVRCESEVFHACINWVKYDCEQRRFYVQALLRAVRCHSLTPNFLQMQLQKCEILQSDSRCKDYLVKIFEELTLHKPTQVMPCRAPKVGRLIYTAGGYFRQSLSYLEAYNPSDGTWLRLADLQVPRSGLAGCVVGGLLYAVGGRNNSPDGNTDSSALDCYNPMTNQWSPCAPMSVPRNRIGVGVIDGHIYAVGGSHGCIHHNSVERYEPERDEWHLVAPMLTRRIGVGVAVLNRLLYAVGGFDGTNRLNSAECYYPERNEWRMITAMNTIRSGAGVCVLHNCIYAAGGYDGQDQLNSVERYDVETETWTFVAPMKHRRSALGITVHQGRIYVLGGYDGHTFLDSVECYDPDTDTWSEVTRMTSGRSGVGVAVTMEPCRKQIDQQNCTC

Biological target: Nestin-ΔESGE (deletion mutant) (UniProt P48681)
Experiment: co-IP; Myc-Nestin or its mutants transfected into NSCLC cells; whole-cell lysates in IP lysis buffer immunoprecipitated with anti-Myc and Protein G magnetic beads, overnight at 4 °C; blotted for endogenous proteins

| Substance | binding |
| --- | --- |
| Kelch-like ECH-associated protein 1 (Keap1) G333C, endogenous in A549 (from UniProt Q14145 1-624) | no binding |
| Kelch-like ECH-associated protein 1 (Keap1), wild type, endogenous in H1299 (from UniProt Q14145 1-624) | no binding |

No constants are given. Whether binding was seen depends on the method and setting. In cells and extracts the contact can be indirect.
